Reference: patent publication US12691069B2, “Synthetic glycolipids and glycoliposome compositions : suitable for cargo delivery to the central nervous system” (KORANEX CAPITAL, priority 2022, dated 2026)
Not every detail of the peptide structures is certain; ends, links or a residue may be inferred. For at least one compound, name, drawing or mass did not settle the structure.

Key:
[1] = tested on: striatal tissue from the brains of mice; test: In vitro dopamine production by ex vivo brain striatal tissue; details: striatal tissue treated with 1 μM or 10 μM Dynantin, 90 minutes at 4° C., vs PBS; LC/MS
striatum tissue dopamine = test: In vivo dopamine production after intranasal treatment; parameters: species or system BALB/c mice; details: intranasal Dynantin 2 μg, alone or incorporated in MG (1:5 w/w), 20 minutes

CC[C@H](C)[C@H](NC(=O)[C@H](CCCNC(=N)N)NC(=O)[C@H](CCCNC(=N)N)NC(=O)[C@H](CC(C)C)NC(=O)[C@H](Cc1ccccc1)NC(=O)CNC(=O)CNC(=O)[C@@H](C)Cc1c(C)cc(O)cc1C)C(=O)N[C@@H](CCCNC(=N)N)C(=O)N1CCC[C@H]1C(=O)N[C@@H](CCCCN)C(N)=O [Dynantin]
dopamine levels [1]: significantly elevated
dopamine levels in striatum tissue (striatum tissue dopamine): 0.58 ± 0.05 ng/mg
